Results are given in words; binding and its absence hold for the method and conditions named. Some results given as binding are weak or reduced against the parent protein; the word gives no strength.
Tests used:
[1] = molecular target: N-terminal 6xHis-MBP tagged Exoc1 (human) (UniProt Q9NV70); test: SEC; reconstitution of subcomplex-1, subcomplex-2 and holocomplex: Sf9 cultures mixed before lysis, capture on amylose resin by the 6xHis-MBP tagged subunit, HRV-3C cleavage, Superose 6 Increase 10/300 GL in 20 mM HEPES, 250 mM NaCl, 0.5 mM TCEP; peak fractions on SDS-PAGE
[2] = molecular target: N-terminal 6xHis-MBP tagged Exoc1 (human) (UniProt Q9NV70); test: SEC; partial complexes Exoc1:mNeonGreen-Exoc4 and Exoc5:mNeonGreen-Exoc6:Exoc7: amylose resin, HRV-3C cleavage, Superdex200 10/300 GL in 20 mM HEPES, 250 mM NaCl, 0.5 mM TCEP

Protein sequences, listed by entry. Tags and fused reporters are not part of them.
UniProt Q9NV70: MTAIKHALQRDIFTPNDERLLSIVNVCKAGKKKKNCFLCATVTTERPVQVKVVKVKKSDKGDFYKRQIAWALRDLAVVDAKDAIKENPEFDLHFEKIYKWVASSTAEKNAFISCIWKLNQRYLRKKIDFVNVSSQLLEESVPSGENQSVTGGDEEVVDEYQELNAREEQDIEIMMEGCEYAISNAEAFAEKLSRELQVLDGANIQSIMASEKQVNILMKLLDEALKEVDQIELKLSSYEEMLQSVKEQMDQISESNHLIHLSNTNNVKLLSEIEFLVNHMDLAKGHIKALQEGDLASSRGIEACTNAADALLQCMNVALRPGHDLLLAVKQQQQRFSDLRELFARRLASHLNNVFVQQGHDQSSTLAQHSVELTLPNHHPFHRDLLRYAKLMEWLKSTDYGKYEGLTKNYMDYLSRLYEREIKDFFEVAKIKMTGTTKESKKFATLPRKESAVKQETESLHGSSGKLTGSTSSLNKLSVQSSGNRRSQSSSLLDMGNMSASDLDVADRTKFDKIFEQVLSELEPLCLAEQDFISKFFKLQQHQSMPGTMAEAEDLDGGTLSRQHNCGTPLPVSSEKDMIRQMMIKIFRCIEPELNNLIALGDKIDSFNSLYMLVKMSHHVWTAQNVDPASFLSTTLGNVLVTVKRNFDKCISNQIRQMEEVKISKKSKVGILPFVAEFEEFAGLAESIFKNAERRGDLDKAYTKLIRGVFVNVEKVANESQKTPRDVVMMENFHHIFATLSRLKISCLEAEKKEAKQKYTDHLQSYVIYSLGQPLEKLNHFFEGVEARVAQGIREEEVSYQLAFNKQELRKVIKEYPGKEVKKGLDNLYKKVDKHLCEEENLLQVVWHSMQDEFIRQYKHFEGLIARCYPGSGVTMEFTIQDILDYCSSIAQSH
UniProt Q96KP1: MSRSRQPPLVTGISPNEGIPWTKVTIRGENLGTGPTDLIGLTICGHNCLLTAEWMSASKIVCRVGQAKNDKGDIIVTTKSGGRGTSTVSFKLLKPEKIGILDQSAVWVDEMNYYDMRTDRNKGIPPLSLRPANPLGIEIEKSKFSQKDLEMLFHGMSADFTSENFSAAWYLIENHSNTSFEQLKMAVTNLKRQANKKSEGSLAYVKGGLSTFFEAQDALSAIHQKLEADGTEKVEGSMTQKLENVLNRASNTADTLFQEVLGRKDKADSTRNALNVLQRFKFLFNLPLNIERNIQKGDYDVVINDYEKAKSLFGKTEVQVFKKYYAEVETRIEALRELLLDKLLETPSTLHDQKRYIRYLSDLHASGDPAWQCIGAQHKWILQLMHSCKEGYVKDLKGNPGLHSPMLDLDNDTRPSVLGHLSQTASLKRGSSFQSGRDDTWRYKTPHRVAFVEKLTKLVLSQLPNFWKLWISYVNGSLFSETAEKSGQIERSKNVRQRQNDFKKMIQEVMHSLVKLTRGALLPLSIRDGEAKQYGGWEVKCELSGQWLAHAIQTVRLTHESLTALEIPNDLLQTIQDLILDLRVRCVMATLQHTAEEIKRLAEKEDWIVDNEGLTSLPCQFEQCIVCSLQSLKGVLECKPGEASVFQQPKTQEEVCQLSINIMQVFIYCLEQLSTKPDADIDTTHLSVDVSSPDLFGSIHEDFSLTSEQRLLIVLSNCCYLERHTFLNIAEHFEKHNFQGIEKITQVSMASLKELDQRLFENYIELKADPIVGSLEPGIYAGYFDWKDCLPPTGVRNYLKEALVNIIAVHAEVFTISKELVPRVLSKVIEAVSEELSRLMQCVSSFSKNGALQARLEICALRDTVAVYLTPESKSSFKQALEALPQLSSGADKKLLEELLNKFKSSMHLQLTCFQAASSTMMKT
UniProt O60645: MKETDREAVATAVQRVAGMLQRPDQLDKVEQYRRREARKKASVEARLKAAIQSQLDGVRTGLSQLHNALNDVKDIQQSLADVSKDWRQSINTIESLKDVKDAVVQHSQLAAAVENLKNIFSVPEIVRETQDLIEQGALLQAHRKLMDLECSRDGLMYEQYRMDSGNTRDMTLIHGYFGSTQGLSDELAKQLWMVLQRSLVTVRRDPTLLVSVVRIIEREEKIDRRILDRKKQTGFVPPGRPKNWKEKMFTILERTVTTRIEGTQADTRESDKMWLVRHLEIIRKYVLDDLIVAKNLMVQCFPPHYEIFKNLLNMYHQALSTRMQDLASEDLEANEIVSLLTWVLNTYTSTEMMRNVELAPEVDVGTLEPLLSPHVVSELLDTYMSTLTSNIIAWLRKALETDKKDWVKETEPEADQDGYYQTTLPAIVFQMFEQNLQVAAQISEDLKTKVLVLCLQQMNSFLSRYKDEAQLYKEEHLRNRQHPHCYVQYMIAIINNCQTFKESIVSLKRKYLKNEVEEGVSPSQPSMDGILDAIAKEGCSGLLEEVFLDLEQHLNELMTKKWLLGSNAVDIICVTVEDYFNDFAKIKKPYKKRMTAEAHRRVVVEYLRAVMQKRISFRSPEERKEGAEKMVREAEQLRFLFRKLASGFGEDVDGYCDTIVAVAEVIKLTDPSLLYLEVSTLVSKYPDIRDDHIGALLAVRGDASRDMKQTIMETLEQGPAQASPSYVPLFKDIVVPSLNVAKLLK
UniProt Q96A65: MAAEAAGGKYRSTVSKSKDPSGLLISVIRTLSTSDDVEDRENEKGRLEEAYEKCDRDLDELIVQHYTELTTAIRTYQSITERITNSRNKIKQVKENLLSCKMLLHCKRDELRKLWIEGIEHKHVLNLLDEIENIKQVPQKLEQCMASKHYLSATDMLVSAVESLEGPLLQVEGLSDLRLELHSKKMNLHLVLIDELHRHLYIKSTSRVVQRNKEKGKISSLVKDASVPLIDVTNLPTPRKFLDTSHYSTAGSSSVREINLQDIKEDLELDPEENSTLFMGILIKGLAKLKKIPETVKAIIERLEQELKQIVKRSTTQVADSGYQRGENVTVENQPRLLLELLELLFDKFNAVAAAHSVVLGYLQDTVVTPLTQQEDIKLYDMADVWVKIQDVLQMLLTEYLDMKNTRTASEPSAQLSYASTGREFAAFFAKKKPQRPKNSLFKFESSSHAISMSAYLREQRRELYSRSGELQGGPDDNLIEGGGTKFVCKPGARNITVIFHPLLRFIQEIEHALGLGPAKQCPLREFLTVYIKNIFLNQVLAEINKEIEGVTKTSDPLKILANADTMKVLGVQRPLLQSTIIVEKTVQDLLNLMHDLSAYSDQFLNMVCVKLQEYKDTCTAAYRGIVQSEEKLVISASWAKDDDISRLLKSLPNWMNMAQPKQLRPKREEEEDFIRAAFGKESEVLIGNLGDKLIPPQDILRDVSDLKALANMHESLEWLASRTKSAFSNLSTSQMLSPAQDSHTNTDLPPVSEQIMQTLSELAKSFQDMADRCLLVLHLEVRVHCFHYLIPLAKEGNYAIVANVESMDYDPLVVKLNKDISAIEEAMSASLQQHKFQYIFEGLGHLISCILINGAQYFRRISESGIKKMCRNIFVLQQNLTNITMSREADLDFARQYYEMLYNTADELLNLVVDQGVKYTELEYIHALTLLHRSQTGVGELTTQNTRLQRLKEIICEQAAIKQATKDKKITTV

Substance	binding [1]	binding [2]
Exoc2 (from UniProt Q96KP1 1-924)	binds	
Exoc3 (from UniProt O60645 1-745)	binds	
N-terminal 6xHis-mNeonGreen tagged Exoc4 (from UniProt Q96A65 1-974)	binds	binds

Reference: paper PMC9382030, “A mechanism for exocyst-mediated tethering via Arf6 and PIP5K1C-driven phosphoinositide conversion” (Current biology : CB, 2022)
